In this assay the target is Flag-NRP1 (Neuropilin-1), transfected in mouse primary HSCs (murine) (UniProt P97333). The experiment in a line: affinity purification with mass spectrometry; Flag-NRP1 transfected in mouse primary HSCs for 24 h; Co-IP of cell lysates with Flag beads, Coomassie blue staining, LC-MS/MS.

By UniProt entry, the sequences of proteins in these tests, tags left out.
UniProt P70398: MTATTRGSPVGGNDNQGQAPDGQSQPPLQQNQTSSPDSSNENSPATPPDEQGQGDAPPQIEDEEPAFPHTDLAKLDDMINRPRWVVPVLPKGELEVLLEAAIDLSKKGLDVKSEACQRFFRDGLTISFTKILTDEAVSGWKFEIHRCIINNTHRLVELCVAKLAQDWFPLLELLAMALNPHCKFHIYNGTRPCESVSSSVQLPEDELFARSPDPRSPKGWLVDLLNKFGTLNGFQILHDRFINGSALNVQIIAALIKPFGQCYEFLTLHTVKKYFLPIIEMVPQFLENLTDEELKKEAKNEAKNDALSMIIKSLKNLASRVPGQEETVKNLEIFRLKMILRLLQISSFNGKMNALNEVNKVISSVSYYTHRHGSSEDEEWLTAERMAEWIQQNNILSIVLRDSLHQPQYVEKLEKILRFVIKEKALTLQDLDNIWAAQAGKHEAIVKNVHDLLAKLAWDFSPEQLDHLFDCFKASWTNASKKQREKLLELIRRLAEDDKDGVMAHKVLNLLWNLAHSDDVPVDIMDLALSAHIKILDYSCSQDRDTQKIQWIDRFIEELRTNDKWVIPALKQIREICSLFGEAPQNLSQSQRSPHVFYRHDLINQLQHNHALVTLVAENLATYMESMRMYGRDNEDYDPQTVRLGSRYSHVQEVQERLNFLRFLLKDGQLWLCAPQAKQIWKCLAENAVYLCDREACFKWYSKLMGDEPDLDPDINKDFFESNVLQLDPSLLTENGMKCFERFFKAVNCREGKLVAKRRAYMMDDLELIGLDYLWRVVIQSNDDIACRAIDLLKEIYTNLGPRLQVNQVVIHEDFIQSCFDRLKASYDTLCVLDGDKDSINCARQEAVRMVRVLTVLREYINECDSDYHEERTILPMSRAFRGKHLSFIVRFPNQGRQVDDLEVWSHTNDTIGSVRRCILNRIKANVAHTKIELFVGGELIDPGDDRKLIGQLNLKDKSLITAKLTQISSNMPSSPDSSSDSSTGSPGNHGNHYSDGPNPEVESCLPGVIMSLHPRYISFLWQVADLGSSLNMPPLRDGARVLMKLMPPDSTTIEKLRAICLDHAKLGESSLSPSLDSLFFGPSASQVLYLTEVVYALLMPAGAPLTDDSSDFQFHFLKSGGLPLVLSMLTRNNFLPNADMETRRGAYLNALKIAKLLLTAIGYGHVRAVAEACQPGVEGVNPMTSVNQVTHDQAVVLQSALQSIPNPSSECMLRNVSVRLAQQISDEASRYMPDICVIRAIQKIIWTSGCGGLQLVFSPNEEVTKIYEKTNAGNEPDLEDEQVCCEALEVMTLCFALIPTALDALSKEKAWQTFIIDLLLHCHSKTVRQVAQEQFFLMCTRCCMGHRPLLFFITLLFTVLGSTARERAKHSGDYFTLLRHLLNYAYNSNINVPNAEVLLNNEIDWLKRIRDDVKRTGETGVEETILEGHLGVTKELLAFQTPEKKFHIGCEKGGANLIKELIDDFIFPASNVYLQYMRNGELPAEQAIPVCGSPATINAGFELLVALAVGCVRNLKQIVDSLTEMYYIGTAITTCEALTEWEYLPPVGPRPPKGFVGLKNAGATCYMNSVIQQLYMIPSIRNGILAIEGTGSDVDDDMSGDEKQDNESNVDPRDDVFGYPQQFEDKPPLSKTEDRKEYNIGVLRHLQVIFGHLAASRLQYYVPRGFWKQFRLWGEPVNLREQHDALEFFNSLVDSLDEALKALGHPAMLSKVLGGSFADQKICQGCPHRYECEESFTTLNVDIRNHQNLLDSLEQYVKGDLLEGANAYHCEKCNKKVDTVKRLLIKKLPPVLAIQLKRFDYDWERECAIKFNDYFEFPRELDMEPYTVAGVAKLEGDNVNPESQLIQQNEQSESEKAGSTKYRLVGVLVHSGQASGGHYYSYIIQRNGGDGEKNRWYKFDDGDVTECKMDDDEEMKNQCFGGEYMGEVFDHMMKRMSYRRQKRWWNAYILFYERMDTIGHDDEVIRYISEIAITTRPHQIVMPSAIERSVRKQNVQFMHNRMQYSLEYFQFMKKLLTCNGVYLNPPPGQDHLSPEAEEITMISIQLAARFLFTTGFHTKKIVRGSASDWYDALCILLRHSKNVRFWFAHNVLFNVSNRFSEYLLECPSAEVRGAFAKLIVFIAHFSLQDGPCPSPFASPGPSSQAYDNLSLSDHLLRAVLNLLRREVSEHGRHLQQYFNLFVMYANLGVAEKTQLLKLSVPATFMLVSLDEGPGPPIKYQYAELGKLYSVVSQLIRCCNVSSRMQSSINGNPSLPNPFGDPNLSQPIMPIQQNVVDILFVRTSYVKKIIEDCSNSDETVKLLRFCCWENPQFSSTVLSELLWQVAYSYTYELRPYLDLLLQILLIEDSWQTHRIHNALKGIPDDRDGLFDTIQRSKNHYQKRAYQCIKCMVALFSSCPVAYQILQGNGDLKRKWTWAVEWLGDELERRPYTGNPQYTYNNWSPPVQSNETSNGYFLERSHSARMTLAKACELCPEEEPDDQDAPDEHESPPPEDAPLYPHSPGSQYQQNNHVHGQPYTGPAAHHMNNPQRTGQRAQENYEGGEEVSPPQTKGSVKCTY

Experimental findings from article PMC9849111 are described below.

No constants are given. Whether binding was seen depends on the method and setting. Binding seen in cells or lysates may run through a third protein. These calls come from enrichment with a bait or labelling near it, and not all partners need be listed.

Take “USP9X (ubiquitin-specific peptidase 9X), endogenous in mouse HSCs (from UniProt P70398 1-2559) (enzyme)”: the binding entry is given as “binds”.
